Experimental data reported in patent publication US20090186376A1.
No constants are given. Whether binding was seen depends on the method and setting. Binding seen in cells or lysates may run through a third protein. Some entries that bind do so weakly or less than the wild type.

Protein sequences, listed by entry. Tags and fused reporters are not part of them. Lines headed by an entry give the natural chain unless they say otherwise; changes in a name come on top.
UniProt P35918: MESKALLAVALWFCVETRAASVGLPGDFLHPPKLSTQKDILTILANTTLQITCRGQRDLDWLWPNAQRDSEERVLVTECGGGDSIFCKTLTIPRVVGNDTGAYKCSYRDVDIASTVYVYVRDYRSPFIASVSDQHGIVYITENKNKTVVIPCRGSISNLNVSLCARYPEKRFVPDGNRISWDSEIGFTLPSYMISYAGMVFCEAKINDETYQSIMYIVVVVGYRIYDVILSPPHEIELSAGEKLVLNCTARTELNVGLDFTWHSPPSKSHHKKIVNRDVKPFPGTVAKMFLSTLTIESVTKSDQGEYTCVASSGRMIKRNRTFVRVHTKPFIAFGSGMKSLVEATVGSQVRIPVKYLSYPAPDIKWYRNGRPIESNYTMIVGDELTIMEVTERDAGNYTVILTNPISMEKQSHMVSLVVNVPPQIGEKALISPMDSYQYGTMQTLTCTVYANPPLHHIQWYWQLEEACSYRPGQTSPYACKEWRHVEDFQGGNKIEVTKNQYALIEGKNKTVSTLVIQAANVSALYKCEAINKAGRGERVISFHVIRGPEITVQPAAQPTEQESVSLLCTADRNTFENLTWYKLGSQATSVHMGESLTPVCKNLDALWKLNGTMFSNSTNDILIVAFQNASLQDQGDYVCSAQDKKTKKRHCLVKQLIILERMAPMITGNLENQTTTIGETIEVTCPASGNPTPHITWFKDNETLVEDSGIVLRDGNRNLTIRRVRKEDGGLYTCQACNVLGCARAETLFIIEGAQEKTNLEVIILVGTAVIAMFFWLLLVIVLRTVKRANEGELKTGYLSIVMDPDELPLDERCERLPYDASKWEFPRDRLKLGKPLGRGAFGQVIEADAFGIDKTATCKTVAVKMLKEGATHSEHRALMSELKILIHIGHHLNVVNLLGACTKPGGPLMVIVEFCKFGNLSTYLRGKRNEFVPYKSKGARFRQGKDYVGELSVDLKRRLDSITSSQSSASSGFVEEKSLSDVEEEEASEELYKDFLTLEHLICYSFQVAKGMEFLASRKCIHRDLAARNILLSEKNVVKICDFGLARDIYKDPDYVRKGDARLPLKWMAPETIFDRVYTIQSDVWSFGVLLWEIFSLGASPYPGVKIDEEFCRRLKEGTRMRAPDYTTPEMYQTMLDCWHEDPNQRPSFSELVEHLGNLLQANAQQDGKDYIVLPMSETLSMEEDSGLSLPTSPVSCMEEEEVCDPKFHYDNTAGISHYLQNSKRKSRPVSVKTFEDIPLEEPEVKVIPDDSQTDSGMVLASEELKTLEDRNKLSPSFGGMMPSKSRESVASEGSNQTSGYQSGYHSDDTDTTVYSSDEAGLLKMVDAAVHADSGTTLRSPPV

Target: T1, mouse VEGF-C (mouse) (UniProt P97953)
T1 sequence (looked up): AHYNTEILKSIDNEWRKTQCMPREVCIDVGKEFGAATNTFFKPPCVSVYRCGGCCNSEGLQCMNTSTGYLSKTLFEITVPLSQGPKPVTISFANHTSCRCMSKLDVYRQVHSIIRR
Test: co-immunoprecipitation of recombinant mouse sVEGFR-2 and mouse VEGF-C with an anti-VEGFR-2 antibody, then western blot

binding: binds
Substance: mouse soluble vascular endothelial growth factor receptor 2 (sVEGFR-2) (from UniProt P35918 20-660)
